No constants are given. Whether binding was seen depends on the method and setting. Tags and fused reporters may be left off the sequences shown.
Target: Actinobacillus pleuropneumoniae HMW1C-like glycosyltransferase (ApHMW1C), His-tagged (Actinobacillus pleuropneumoniae) (UniProt A3N2T3)
Test: SEC; analytical gel filtration of purified ApHMW1C; standards aldolase 158 kDa, conalbumin 75 kDa, ovalbumin 43 kDa; calculated molecular weight ~70 kDa; both purified

B1: Actinobacillus pleuropneumoniae HMW1C-like glycosyltransferase (ApHMW1C), His-tagged (enzyme, UniProt A3N2T3 1-620)
chain: MENENKPNVANFEAAVAAKDYEKACSELLLILSQLDSNFGGIHEIEFEYPAQLQDLEQEKIVYFCTRMATAITTLFSDPVLEISDLGVQRFLVYQRWLALIFASSPFVNADHILQTYNREPNRKNSLEIHLDSSKSSLIKFCILYLPESNVNLNLDVMWNISPELCASLCFALQSPRFVGTSTAFNKRATILQWFPRHLDQLKNLNNIPSAISHDVYMHCSYDTSVNKHDVKRALNHVIRRHIESEYGWKDRDVAHIGYRNNKPVMVVLLEHFHSAHSIYRTHSTSMIAAREHFYLIGLGSPSVDQAGQEVFDEFHLVAGDNMKQKLEFIRSVCESNGAAIFYMPSIGMDMTTIFASNTRLAPIQAIALGHPATTHSDFIEYVIVEDDYVGSEECFSETLLRLPKDALPYVPSALAPEKVDYLLRENPEVVNIGIASTTMKLNPYFLEALKAIRDRAKVKVHFHFALGQSNGITHPYVERFIKSYLGDSATAHPHSPYHQYLRILHNCDMMVNPFPFGNTNGIIDMVTLGLVGVCKTGAEVHEHIDEGLFKRLGLPEWLIANTVDEYVERAVRLAENHQERLELRRYIIENNGLNTLFTGDPRPMGQVFLEKLNAFLKEN
B1 was tested, and the binding was “no binding”.

Reference: paper PMC3012730, “The Actinobacillus pleuropneumoniae HMW1C-Like Glycosyltransferase Mediates N-Linked Glycosylation of the Haemophilus influenzae HMW1 Adhesin” (PLoS ONE, 2010)
